Test results: the odorant receptor screen of Mainland et al. (2015)
Several values for one entry are separate records, joined by “and”; a condition that tells them apart may be missing. Equal values may be shown once. This is one part of the list. Single wells; the ratio to wells without odorant was worked out here, and repeats agree poorly.

How the values were obtained:
Assay in all cases: odorant receptor activation (CRE luciferase / Renilla) (fold of no-odor wells); higher = more activation
Details in all cases: 100 µM
OR51L1 clone 1534 = tested on: OR51L1 clone 1534
[1] = tested on: OR51M1 H91Q/L124F/I193T/P245H/F307L clone 1121
OR51Q1 clone 1190 = tested on: OR51Q1 clone 1190
OR51S1 clone 1699 = tested on: OR51S1 clone 1699
OR51T1 clone 1326 = tested on: OR51T1 clone 1326
OR51V1 clone 1700 = tested on: OR51V1 clone 1700
OR51V1 clone 1701 = tested on: OR51V1 clone 1701
OR52A1 S272P clone 1151 = tested on: OR52A1 S272P clone 1151
OR52A4 clone 1719 = tested on: OR52A4 clone 1719
OR52A5 clone 1568 = tested on: OR52A5 clone 1568
OR52B2 clone 1210 = tested on: OR52B2 clone 1210
OR52B4 clone 1508 = tested on: OR52B4 clone 1508
[2] = tested on: OR52B6 T36A/L90H/A146T/H149R/V267I clone 1306
OR52D1 clone 1164 = tested on: OR52D1 clone 1164
OR52E1 clone 1113 = tested on: OR52E1 clone 1113
[3] = tested on: OR52E2 H174R/R264C clone 1184
[4] = tested on: OR52E4 V176I/R184M/R228H clone 1123
OR52E5 P234L clone 1124 = tested on: OR52E5 P234L clone 1124
OR52E6 clone 1196 = tested on: OR52E6 clone 1196
OR52E8 clone 1154 = tested on: OR52E8 clone 1154

What does the source list for `CCC(C)=O` [2-butanone]?
odorant receptor activation (OR51L1 clone 1534): 1.04; odorant receptor activation [1]: 1.02; odorant receptor activation (OR51Q1 clone 1190): 0.714; odorant receptor activation (OR51S1 clone 1699): 0.69; odorant receptor activation (OR51T1 clone 1326): 1.02; odorant receptor activation (OR51V1 clone 1700): 0.931; odorant receptor activation (OR51V1 clone 1701): 0.882; odorant receptor activation (OR52A1 S272P clone 1151): 1.47; odorant receptor activation (OR52A4 clone 1719): 1.12; odorant receptor activation (OR52A5 clone 1568): 1.04; odorant receptor activation (OR52B2 clone 1210): 0.978; odorant receptor activation (OR52B4 clone 1508): 1.19; odorant receptor activation [2]: 1.17; odorant receptor activation (OR52D1 clone 1164): 0.824; odorant receptor activation (OR52E1 clone 1113): 7.48; odorant receptor activation [3]: 0.668; odorant receptor activation [4]: 0.861; odorant receptor activation (OR52E5 P234L clone 1124): 0.751; odorant receptor activation (OR52E6 clone 1196): 0.94; odorant receptor activation (OR52E8 clone 1154): 0.977

`CCOc1cc(C=O)ccc1O` [ethyl vanillin] was tested. Which odorant receptor activation (OR51L1 clone 1534) did it give?
Its odorant receptor activation is 0.867 and 2.01 and 1.17.

What about the odorant receptor activation [1] of the same compound?
The odorant receptor activation was 1.25.

And the odorant receptor activation (OR51Q1 clone 1190)?
Its odorant receptor activation is 1.02 and 1.08.

And the odorant receptor activation (OR51S1 clone 1699)?
Its odorant receptor activation is 0.637.

And the odorant receptor activation (OR51T1 clone 1326)?
The odorant receptor activation was 0.616 and 1.15.

What about the odorant receptor activation (OR51V1 clone 1700) of the same compound?
Its odorant receptor activation is 0.627.

And the odorant receptor activation (OR51V1 clone 1701)?
Its odorant receptor activation is 0.876.

What about the odorant receptor activation (OR52A1 S272P clone 1151) of the same compound?
Its odorant receptor activation is 1.6 and 1.11.

And the odorant receptor activation (OR52A4 clone 1719)?
The odorant receptor activation was 0.948.

What about the odorant receptor activation (OR52A5 clone 1568) of the same compound?
Its odorant receptor activation is 0.848.

What about the odorant receptor activation (OR52B2 clone 1210) of the same compound?
The odorant receptor activation was 0.962 and 0.983.

And the odorant receptor activation (OR52B4 clone 1508)?
The odorant receptor activation was 1.19 and 2.48 and 1.21.

What about the odorant receptor activation [2] of the same compound?
Its odorant receptor activation is 1.13 and 0.843.

What about the odorant receptor activation (OR52D1 clone 1164) of the same compound?
Its odorant receptor activation is 1.27 and 1.01.

What about the odorant receptor activation (OR52E1 clone 1113) of the same compound?
The odorant receptor activation was 0.754 and 1.03.

What about the odorant receptor activation [3] of the same compound?
Its odorant receptor activation is 1.54 and 1.09.

What about the odorant receptor activation [4] of the same compound?
The odorant receptor activation was 0.946.

What about the odorant receptor activation (OR52E5 P234L clone 1124) of the same compound?
Its odorant receptor activation is 1.32.

And the odorant receptor activation (OR52E6 clone 1196)?
The odorant receptor activation was 1.61 and 1.26.

What about the odorant receptor activation (OR52E8 clone 1154) of the same compound?
Its odorant receptor activation is 1.64 and 1.3.

Which odorant receptor activation (OR51L1 clone 1534) does the source give for `CS` [methanethiol] here?
The odorant receptor activation was 1.03.

What about the odorant receptor activation [1] of the same compound?
Its odorant receptor activation is 1.

What about the odorant receptor activation (OR51Q1 clone 1190) of the same compound?
Its odorant receptor activation is 0.914.

What about the odorant receptor activation (OR51S1 clone 1699) of the same compound?
Its odorant receptor activation is 0.795.

What about the odorant receptor activation (OR51T1 clone 1326) of the same compound?
Its odorant receptor activation is 0.623.

What about the odorant receptor activation (OR51V1 clone 1700) of the same compound?
Its odorant receptor activation is 0.722.

And the odorant receptor activation (OR51V1 clone 1701)?
The odorant receptor activation was 1.07.

What about the odorant receptor activation (OR52A1 S272P clone 1151) of the same compound?
The odorant receptor activation was 1.08.

And the odorant receptor activation (OR52A4 clone 1719)?
Its odorant receptor activation is 0.783.

What about the odorant receptor activation (OR52A5 clone 1568) of the same compound?
The odorant receptor activation was 0.75.

And the odorant receptor activation (OR52B2 clone 1210)?
The odorant receptor activation was 0.866.

And the odorant receptor activation (OR52B4 clone 1508)?
Its odorant receptor activation is 0.869.

What about the odorant receptor activation [2] of the same compound?
The odorant receptor activation was 0.16.

What about the odorant receptor activation (OR52D1 clone 1164) of the same compound?
The odorant receptor activation was 0.855.

What about the odorant receptor activation (OR52E1 clone 1113) of the same compound?
The odorant receptor activation was 0.88.

What about the odorant receptor activation [3] of the same compound?
Its odorant receptor activation is 1.19.

And the odorant receptor activation [4]?
The odorant receptor activation was 0.874.

And the odorant receptor activation (OR52E5 P234L clone 1124)?
Its odorant receptor activation is 0.829.

And the odorant receptor activation (OR52E6 clone 1196)?
Its odorant receptor activation is 1.01.

And the odorant receptor activation (OR52E8 clone 1154)?
Its odorant receptor activation is 0.888.

`CCCCOC(C)=O` [butyl acetate] was tested. Which odorant receptor activation (OR51L1 clone 1534) did it give?
Its odorant receptor activation is 0.971.

And the odorant receptor activation [1]?
The odorant receptor activation was 1.02.

What about the odorant receptor activation (OR51Q1 clone 1190) of the same compound?
Its odorant receptor activation is 0.811.

What about the odorant receptor activation (OR51S1 clone 1699) of the same compound?
Its odorant receptor activation is 1.27.

What about the odorant receptor activation (OR51T1 clone 1326) of the same compound?
Its odorant receptor activation is 0.851.

What about the odorant receptor activation (OR51V1 clone 1700) of the same compound?
The odorant receptor activation was 0.687.

And the odorant receptor activation (OR51V1 clone 1701)?
The odorant receptor activation was 0.731.

What about the odorant receptor activation (OR52A1 S272P clone 1151) of the same compound?
The odorant receptor activation was 0.751.

And the odorant receptor activation (OR52A4 clone 1719)?
The odorant receptor activation was 0.496.

And the odorant receptor activation (OR52A5 clone 1568)?
The odorant receptor activation was 0.887.

What about the odorant receptor activation (OR52B2 clone 1210) of the same compound?
Its odorant receptor activation is 0.815.

And the odorant receptor activation (OR52B4 clone 1508)?
Its odorant receptor activation is 0.901.

What about the odorant receptor activation [2] of the same compound?
Its odorant receptor activation is 0.886.

And the odorant receptor activation (OR52D1 clone 1164)?
Its odorant receptor activation is 0.898.

And the odorant receptor activation (OR52E1 clone 1113)?
Its odorant receptor activation is 0.901.

What about the odorant receptor activation [3] of the same compound?
Its odorant receptor activation is 0.858.

And the odorant receptor activation [4]?
The odorant receptor activation was 0.859.

What about the odorant receptor activation (OR52E5 P234L clone 1124) of the same compound?
The odorant receptor activation was 1.14.

And the odorant receptor activation (OR52E6 clone 1196)?
Its odorant receptor activation is 1.16.

What about the odorant receptor activation (OR52E8 clone 1154) of the same compound?
Its odorant receptor activation is 1.16.
